Measurements reported in publication PMC8069203.

Tests used:
Test in all cases: electrochemical aptasensor
[1] = target: HSA (human serum albumin) (UniProt P02768); conditions: 100x the VEGF165 concentration (100 pg/mL and 10 ng/mL), negligible effect on signal; 5'-NH2, coupled by amide bond to PANI/CNT carboxyl groups (DMT-MM); PBS rinsing, ferri/ferrocyanide redox probe; aptamer immobilized on PANI/CNT screen-printed carbon electrode; commercial protein
[2] = system: Lip; conditions: 100x the VEGF165 concentration, negligible effect on signal; 5'-NH2, coupled by amide bond to PANI/CNT carboxyl groups (DMT-MM); PBS rinsing, ferri/ferrocyanide redox probe; aptamer immobilized on PANI/CNT screen-printed carbon electrode; commercial protein
[3] = system: Lys; conditions: 100x the VEGF165 concentration, negligible effect on signal; 5'-NH2, coupled by amide bond to PANI/CNT carboxyl groups (DMT-MM); PBS rinsing, ferri/ferrocyanide redox probe; aptamer immobilized on PANI/CNT screen-printed carbon electrode; commercial protein

Measured: binding result

AUGCAGUUUGAGAAGUCGCGCAU [anti-VEGF165 RNA aptamer]
no binding: [1] | [2] | [3]

Negatives hold for the conditions tested. At least one verdict rests on a figure or table, not on a statement of the authors. For part of these data: The exact form of at least one protein or probe is not confirmed.
